For 40 compounds, OMR-Perf results are on record in the supplement of paper PMC10727501.

The other results are listed elsewhere or left out. Repeats in this data set agree poorly, so a single value says little.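 Researchers measured free-swimming zebrafish larvae's O-bend response probability to dark flashes (naive: first five; training: remaining flashes of four 60-flash blocks; test: later 60-flash block) and OMR turning toward alternating leftward/rightward LED motion. Six treated larvae were compared to sixty 0.1% DMSO controls, with |SSMD|≥2 marking a hit.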

This test relates to Danio rerio larvae (5 dpf, TLF). The test is described as follows: OMR-Perf (SSMD vs DMSO vehicle); higher = higher than vehicle (e.g. higher dark-flash O-bend response probability, or better optomotor performance). The note with it: 10 µM; pre-incubation: 30-90 min.
`CCc1cc(C(N)=S)ccn1` [Ethionamide] registered an OMR-Perf of -0.4.
The value for `COc1ccc(-c2oc3c(CC=C(C)C)c(OC4O[C@H](CO)[C@@H](O)[C@H](O)[C@H]4O)cc(O)c3c(=O)c2OC2O[C@@H](C)[C@H](O)[C@@H](O)[C@@H]2O)cc1` (stereo not given in full) [Icariin] was -0.157; that for `CN(C)Cc1ccc(S(=O)(=O)n2ccc(/C=C/C(=O)NO)c2)cc1` [Resminostat] was 0.42; that for `NC(=O)Nc1sc(-c2ccc(F)cc2)cc1C(N)=O` was 0.139.
Then `CC(=O)/N=c1\sc(S(N)(=O)=O)nn1C` [Methazolamide], with -1.27.
With `CC(C)c1ccccc1Cc1cc(C(=O)Nc2ccc(S(=O)(=O)c3ccccc3C(C)(C)C)cc2)c(O)c(O)c1O`, the OMR-Perf is -0.485.
In turn, `COc1ccc([C@@H]2CC(=O)c3c(O)cc(O[C@@H]4O[C@H](CO[C@@H]5O[C@@H](C)[C@H](O)[C@H](O)[C@H]5O)[C@@H](O)[C@H](O)[C@H]4O)cc3O2)cc1O` [Hesperidin] showed an OMR-Perf of -0.476.
On to `O=C(CCCCCN1C(=O)c2cccc3cccc(c23)C1=O)NO` [Scriptaid], for which the OMR-Perf is 0.277.
For the compound `CC(=O)SCC(Cc1ccccc1)C(=O)NCC(=O)OCc1ccccc1` (stereo not given) [Racecadotril], the OMR-Perf is -0.257.
Then `COc1ccccc1OCC(O)CN1CCN(CC(=O)Nc2c(C)cccc2C)CC1.Cl.Cl` (stereo not given) [Ranolazine 2HCl], with 0.104; and `O=C([O-])c1ccccc1[O-].[Bi+3].[OH-]` [Bismuth Subsalicylate], with -0.187.
In turn, `Nc1ccn([C@@H]2CS[C@H](CO)O2)c(=O)n1` [Lamivudine] had an OMR-Perf of 0.106.
Take `O=C(O)CCCc1c[nH]c2ccccc12` [3-Indolebutyric acid (IBA)]: the OMR-Perf came to 0.395.
Compound `CC(C)(C(=O)O)c1ccc(C(O)CCCN2CCC(C(O)(c3ccccc3)c3ccccc3)CC2)cc1.Cl` (stereo not given) [Fexofenadine HCl] returned an OMR-Perf of -0.542.
For the compound `CN(C)CC/C=C1\c2ccccc2Sc2ccc(Cl)cc21` [Chlorprothixene], the OMR-Perf was -0.666.
With `[I-].[K+]` [Potassium Iodide], the OMR-Perf was -0.608.
Turning to `CN1CCCC1c1cccnc1.O=C(O)C(O)C(O)C(=O)O.O=C(O)C(O)C(O)C(=O)O` (stereo not given) [Nicotine Ditartrate], the OMR-Perf was -1.04.
The value for `CN(C)c1cc(NC(=O)CNC(C)(C)C)c(O)c2c1C[C@H]1C[C@H]3[C@@H](N(C)C)C(O)=C(C(N)=O)C(=O)[C@@]3(O)C(O)=C1C2=O` [Tigecycline] was -0.551; that for `CC(c1cc2ccccc2s1)N(O)C(N)=O` (stereo not given) [Zileuton] was 0.287; that for `Cc1nc2n(c(=O)c1CCN1CCC(c3noc4cc(F)ccc34)CC1)CCC[C@H]2O` [Paliperidone (Invega)] was -0.714.
On to `CCCCNc1cc(C(=O)O)cc(S(N)(=O)=O)c1Oc1ccccc1` [Bumetanide], for which the OMR-Perf came to 0.0927.
Compound `CS(=O)(=O)N1CCc2c(-c3cnc(N)nc3)nc(N3CCOCC3)nc21` showed an OMR-Perf of -0.478.
Regarding `COc1ccc(NS(=O)(=O)c2ccc(N)cc2)nn1` [Sulfamethoxypyridazine], the OMR-Perf was -0.0842.
`CC[C@H](NC(=O)[C@H](C)NC)C(=O)N1C[C@@H](O)C[C@H]1Cc1c(-c2[nH]c3cc(F)ccc3c2C[C@@H]2C[C@H](O)CN2C(=O)[C@H](CC)NC(=O)[C@H](C)NC)[nH]c2cc(F)ccc12` [Birinapant]: the OMR-Perf worked out at 0.0481.
In turn, `Cc1cc(/N=N/c2ccc(S(=O)(=O)Nc3ccccn3)cc2)c(N)cc1O` yielded an OMR-Perf of -0.289.
For `CNC(=O)c1ccc(N2C(=S)N(c3cnc(C#N)c(C(F)(F)F)c3)C(=O)C23CCC3)cc1F`, the OMR-Perf is -0.665.
The compound `Cc1ccc(C)c(OCCCC(C)(C)C(=O)O)c1` [Gemfibrozil] yielded an OMR-Perf of 0.186.
`Oc1nc(-c2ccc(C(F)(F)F)cc2)nc2c1CSCC2`: the OMR-Perf came to 0.2.
`CC(=O)[C@@H]1CC[C@H]2[C@@H]3CC=C4C[C@@H](O)CC[C@]4(C)[C@@H]3CC[C@]12C` [Pregnenolone] had an OMR-Perf of 0.00809.
Regarding `CN1CCC(=C2c3ccccc3CC(=O)c3sccc32)CC1.O=C(O)/C=C/C(=O)O` [Ketotifen Fumarate], the OMR-Perf amounted to 0.25.
In turn, `C[C@]12C=CC(=O)N[C@@H]1CC[C@@H]1[C@H]2CC[C@]2(C)[C@H](C(=O)Nc3cc(C(F)(F)F)ccc3C(F)(F)F)CC[C@@H]12` [Dutasteride] yielded an OMR-Perf of -0.374.
Then `C#C[C@@]1(O)CC[C@H]2[C@@H]3CCc4cc(O)ccc4[C@@H]3CC[C@@]21C` [Ethinyl Estradiol], with -0.253; and `O=c1cc(N2CCOCC2)oc2c1ccc1ccccc12`, with 0.773.
Take `COc1cccc(-c2cc(=O)c3ccccc3o2)c1N`: the OMR-Perf was -0.491.
The value for `C[C@@H]1C[C@H]2[C@@H]3CCC4=CC(=O)C=C[C@]4(C)[C@]3(F)[C@H](O)C[C@]2(C)[C@]1(O)C(=O)CO` [Dexamethasone (DHAP)] was 1.57; that for `CCNC(=O)[C@H]1O[C@@H](n2cnc3c(N)nc(NCCc4ccc(CCC(=O)O)cc4)nc32)[C@@H](O)[C@@H]1O.Cl` was -0.102.
The value for `C[C@@H]1O[C@@H](OC[C@H]2O[C@@H](Oc3c(-c4ccc(O)c(O)c4)oc4cc(O)cc(O)c4c3=O)[C@@H](O)[C@@H](O)[C@@H]2O)[C@@H](O)[C@H](O)[C@H]1O` [Rutin] was -0.531.
As for `OCC(CO)N[C@H]1C[C@@](O)(CO)[C@@H](O)[C@H](O)[C@H]1O` [Voglibose], the OMR-Perf was 0.0755.
`CC(C)Cn1cnc2c(N)nc3ccccc3c21` [Imiquimod]: the OMR-Perf was -0.291.
Turning to `Cn1cc(C2=C(c3ccc(Cl)cc3Cl)C(=O)NC2=O)c2ccccc21`, the OMR-Perf is -0.557.
